This experiment deals with P388 leukemia ip, CD2F1 mice, survival T/C. The experiment in a line: NCI In Vivo Anticancer Drug Screen. Data for tumor model P388 Leukemia (intraperitoneal) in CD2F1 (CDF1) mice. Particulars: T/C endpoint: median survival time, higher T/C = longer survival.
Where [1] appears, read: dose: 12.5 mg/kg/injection, schedule: Q01DX005 (ip), vehicle: DMSO.
Where [2] appears, read: dose: 200.0 mg/kg/injection, schedule: Q01DX009 (ip), vehicle: saline with Tween-80.
The mark [3] stands for this setting: dose: 400.0 mg/kg/injection, schedule: Q01DX009 (ip), vehicle: saline with Tween-80.
The mark [4] stands for this setting: dose: 200.0 mg/kg/injection, schedule: Q01DX009 (ip), vehicle: Klucel (hydroxypropylcellulose) (HPC).
[5] abbreviates: dose: 100.0 mg/kg/injection, schedule: Q01DX009 (ip), vehicle: saline.
The mark [6] stands for this setting: dose: 200.0 mg/kg/injection, schedule: Q01DX009 (ip), vehicle: saline.
The mark [7] stands for this setting: dose: 25.0 mg/kg/injection, schedule: Q01DX009 (ip), vehicle: Klucel (hydroxypropylcellulose) (HPC).
Setting [8] is: dose: 50.0 mg/kg/injection, schedule: Q01DX009 (ip), vehicle: saline.

The values below come from PubChem BioAssay AID330 (DTP/NCI, 2004).

The list does not hold the whole screen: it is rich in T/C values a quarter to a half above the control, in often repeated tests (any T/C) and in doses without a T/C. Further doses and runs are listed elsewhere. T/C gives the treated animals as a percentage of the vehicle group. Some entries give survivors of the animals treated and no T/C: the source files T/C as zero there, which appears to mark a toxic dose or a test without result, not a measured value. Some doses without a T/C left all or most animals alive at the check, yet need not have been tolerated: survival well below the control is almost never listed, so the zero probably covers shortened survival too. Survivors were counted at the toxicity check, usually on the fifth day, unless a day is given; later deaths do not show. Schedules are NCI's codes, taken here to give the interval after Q, in days (D) or hours (H), and the number of doses after X. For survival time, the PubChem record calls one and a half times the control and up active, and a quarter to a half above the control has no call in these data; cut-offs in other NCI protocols can differ. Some doses were run more than once; the results are listed from low to high.

As for `C=Cc1cc(OC)c2c(c1)c(=O)oc1c2cc(OC)c2c(O)ccc(C3OC(C)C(O)C(C)(O)C3O)c21` (stereo not drawn), the T/C is 129 and 135 % of control (dose: 6.25 mg/kg/injection, schedule: Q01DX005 (ip), vehicle: DMSO); 133 % of control under setting [1]. Moreover, the survivor count under setting [1] is 6 of 6; the survivor count (dose: 25.0 mg/kg/injection, schedule: Q01DX005 (ip), vehicle: DMSO) is reported as 6 of 6; the survivor count (dose: 50.0 mg/kg/injection, schedule: Q01DX005 (ip), vehicle: DMSO) is on record as 6 of 6; the survivor count (dose: 100.0 mg/kg/injection, schedule: Q01DX005 (ip), vehicle: DMSO) is on record as 3 of 6; the survivor count (dose: 200.0 mg/kg/injection, schedule: Q01DX005 (ip), vehicle: DMSO) is 0 of 6.
`O=C(C(Br)C(Br)c1ccccc1)N1CCOCC1` (stereo not drawn): the T/C runs as follows: under setting [2], 127 % of control; under setting [3], 140 % of control.
Take `CC1=C(CCC(C)CO)OC2CC3C4CCC5CC(O)CCC5(C)C4CCC3(C)C12` (stereo not drawn): the survivor count (dose: 50.0 mg/kg/injection, schedule: Q01DX009 (ip), vehicle: suspension in saline) is listed as 5 of 6.
Turning to `COc1cccc2c1C(=O)c1c(O)c3c(c(O)c1C2=O)CC(O)(C(C)=O)CC3OC1CC(N)C(OC2CC(N)C(O)C(C)O2)C(C)O1` (stereo not drawn), the T/C (dose: 0.78 mg/kg/injection, schedule: Q01DX009 (ip), vehicle: water) is 128 and 130 % of control; the T/C (dose: 1.56 mg/kg/injection, schedule: Q01DX009 (ip), vehicle: water) is 131 and 149 % of control; the T/C (dose: 3.13 mg/kg/injection, schedule: Q01DX009 (ip), vehicle: water) is 149 % of control; the T/C (dose: 6.25 mg/kg/injection, schedule: Q01DX009 (ip), vehicle: water) was 146 % of control. In addition, the survivor count is listed as 6 of 6 (dose: 12.5 mg/kg/injection, schedule: Q01DX009 (ip), vehicle: water) and 6 of 6 (dose: 25.0 mg/kg/injection, schedule: Q01DX009 (ip), vehicle: water).
In the case of `OCC1OC(n2c(=S)[nH]c3ccccc32)C(O)C1O` (stereo not drawn), the survivor count (dose: 240.0 mg/kg/injection, schedule: Q01DX005 (ip), vehicle: saline with Tween-80) is reported as 0 of 6.
Consider `CC(=O)Oc1ccc[nH]c1=O`, for which the T/C is 127 % of control (dose: 264.0 mg/kg/injection, schedule: Q01DX009 (ip), vehicle: saline with Tween-80); 145 % of control (dose: 300.0 mg/kg/injection, schedule: Q01DX009 (ip), vehicle: saline); 131 and 140 % of control under setting [3]; 142 % of control (dose: 400.0 mg/kg/injection, schedule: Q01DX009 (ip), vehicle: saline). Also, the survivor count is recorded as 5 of 6 (dose: 600.0 mg/kg/injection, schedule: Q01DX009 (ip), vehicle: saline); 4 of 6 (dose: 800.0 mg/kg/injection, schedule: Q01DX009 (ip), vehicle: saline sonified); 1 of 6 (dose: 1000.0 mg/kg/injection, schedule: Q01DX009 (ip), vehicle: saline sonified); 0 of 6 (dose: 1200.0 mg/kg/injection, schedule: Q01DX009 (ip), vehicle: saline sonified).
Regarding `C#CCN(C)/N=N/c1nc[nH]c1C(N)=O`, the survivor count under setting [4] is 5 of 6.
In the case of `O=C(O)c1c[nH]c2cc([N+](=O)[O-])ccc2c1=O`, the survivor count is recorded as 2 of 6 under setting [5] and 2 of 6 under setting [6].
Take `Cc1ccc2nc(NC(=O)OCc3ccccc3)sc2c1`: the survivor count under setting [7] is 6 of 6; the survivor count (dose: 50.0 mg/kg/injection, schedule: Q01DX009 (ip), vehicle: Klucel (hydroxypropylcellulose) (HPC)) is on record as 6 of 6; the survivor count (dose: 100.0 mg/kg/injection, schedule: Q01DX009 (ip), vehicle: Klucel (hydroxypropylcellulose) (HPC)) is 4 of 6; the survivor count under setting [4] is on record as 0 of 6.
As for `Nc1nc2ccc(Br)cc2s1`, the survivor count under setting [8] is listed as 6 of 6; the survivor count under setting [6] is given as 6 of 6; the survivor count (dose: 200.0 mg/kg/injection, schedule: Q01DX009 (ip), vehicle: suspension in saline) is listed as 6 of 6.
As to `CCOc1nc2ccccc2nc1OCC`, the survivor count (dose: 200.0 mg/kg/injection, schedule: Q01DX005 (ip), vehicle: Klucel (hydroxypropylcellulose) (HPC)) is on record as 5 of 5.
Regarding `CC/C(=C(\c1ccccc1)c1ccc(OCCNC)cc1)c1ccccc1`, the survivor count is given as 1 of 6 (dose: 60.0 mg/kg/injection, schedule: Q01DX005 (ip), vehicle: Klucel (hydroxypropylcellulose) (HPC)); 1 of 6 (dose: 120.0 mg/kg/injection, schedule: Q01DX005 (ip), vehicle: Klucel (hydroxypropylcellulose) (HPC)); 0 of 6 (dose: 240.0 mg/kg/injection, schedule: Q01DX005 (ip), vehicle: Klucel (hydroxypropylcellulose) (HPC)).
For the compound `O=C(CBr)c1cc2c(cc1I)OCO2`, the survivor count (dose: 50.0 mg/kg/injection, schedule: Q01DX001 (ip), vehicle: saline with Tween-80) is recorded as 4 of 6; the survivor count (dose: 100.0 mg/kg/injection, schedule: Q01DX001 (ip), vehicle: saline with Tween-80) is 1 of 6; the survivor count (dose: 200.0 mg/kg/injection, schedule: Q01DX001 (ip), vehicle: saline with Tween-80) is 3 of 6; the survivor count (dose: 400.0 mg/kg/injection, schedule: Q01DX001 (ip), vehicle: saline with Tween-80) is on record as 0 of 6.
In the case of `C=CC1CCCC[S+]1CC(=O)OCC` (stereo not drawn), the survivor count is, setting by setting: (dose: 200.0 mg/kg/injection, schedule: Q04DX002 (ip), vehicle: saline with Tween-80) 5 of 6; (dose: 400.0 mg/kg/injection, schedule: Q04DX002 (ip), vehicle: saline with Tween-80) 0 of 6.
As for `CC1(C)OC2CCC3OC(=O)C(C)(Cl)C3C2O1` (stereo not drawn), the survivor count (dose: 200.0 mg/kg/injection, schedule: Q01DX009 (ip), vehicle: other) is recorded as 1 of 3.
With `CC(C)[CH2][Sn]1([CH2]C(C)C)[O]CCNCC[O]1`, the survivor count runs as follows: (dose: 6.25 mg/kg/injection, schedule: Q01DX009 (ip), vehicle: suspension in saline) 6 of 6; (dose: 12.5 mg/kg/injection, schedule: Q01DX009 (ip), vehicle: suspension in saline) 3 of 6; (dose: 25.0 mg/kg/injection, schedule: Q01DX009 (ip), vehicle: suspension in saline) 0 of 6; under setting [8], 0 of 6; under setting [5], 0 of 6; under setting [6], 0 of 6.
`C=CC(COC(=O)C(C)(C)OC(C)=O)c1ccc(OC(=O)C(C)C)c(OC)c1` (stereo not drawn): the survivor count under setting [7] is 6 of 6.
As for `CCOC(=O)c1ccc(N(CCOS(C)(=O)=O)CCOS(C)(=O)=O)cc1`, for the setting “dose: 400.0 mg/kg/injection, schedule: Q04DX003 (ip), vehicle: saline with Tween-80”, the survivor count is reported as 6 of 6.
`CCCCNC(C)C1(O)Cc2c(O)c3c(c(O)c2C(OC2CC(N)C(O)C(C)O2)C1)C(=O)c1c(OC)cccc1C3=O` (stereo not drawn): the T/C by setting is: (dose: 1.25 mg/kg/injection, schedule: Q01DX009 (ip), vehicle: water) 130 and 132 % of control; (dose: 2.5 mg/kg/injection, schedule: Q01DX009 (ip), vehicle: water) 126 and 137 % of control; (dose: 5.0 mg/kg/injection, schedule: Q01DX009 (ip), vehicle: water) 140 and 143 % of control.
`C=C1C(=O)OC2C1CCC(=C)C1CC(OC3OC(CO)C(O)C(O)C3O)C(=C)C12` (stereo not drawn): the T/C (dose: 200.0 mg/kg/injection, schedule: Q04DX003 (ip), vehicle: saline with Tween-80) is 127 % of control.
With `O=C1NC(=O)C(=Cc2cc3c(cc2Br)OCO3)C(=O)N1`, under setting [2], the T/C was 125 % of control. Besides, the survivor count by setting is: under setting [2], 4 of 6; (dose: 300.0 mg/kg/injection, schedule: Q01DX009 (ip), vehicle: saline with Tween-80) 2 of 6; (dose: 400.0 mg/kg/injection, schedule: Q01DX009 (ip), vehicle: Klucel (hydroxypropylcellulose) (HPC)) 4 of 6; under setting [3], 0 of 6.
